According to paper PMC5007356:
Results are given in words; binding and its absence hold for the method and conditions named. In cells and extracts the contact can be indirect.

By UniProt entry, the sequences of proteins in these tests, tags left out.
UniProt Q9UM11: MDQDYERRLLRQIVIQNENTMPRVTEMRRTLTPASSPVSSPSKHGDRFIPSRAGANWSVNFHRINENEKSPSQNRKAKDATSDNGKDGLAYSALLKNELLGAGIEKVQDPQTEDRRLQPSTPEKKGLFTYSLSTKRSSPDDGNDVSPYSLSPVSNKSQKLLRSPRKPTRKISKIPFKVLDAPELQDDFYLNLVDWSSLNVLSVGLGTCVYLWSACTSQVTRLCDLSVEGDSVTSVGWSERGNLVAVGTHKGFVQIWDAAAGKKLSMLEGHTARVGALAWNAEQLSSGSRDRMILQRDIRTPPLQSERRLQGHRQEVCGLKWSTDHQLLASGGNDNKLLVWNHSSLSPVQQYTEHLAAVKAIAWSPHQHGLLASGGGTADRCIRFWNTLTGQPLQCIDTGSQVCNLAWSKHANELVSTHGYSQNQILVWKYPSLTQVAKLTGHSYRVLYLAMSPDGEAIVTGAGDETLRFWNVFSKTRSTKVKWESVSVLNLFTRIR
UniProt Q8TEP8: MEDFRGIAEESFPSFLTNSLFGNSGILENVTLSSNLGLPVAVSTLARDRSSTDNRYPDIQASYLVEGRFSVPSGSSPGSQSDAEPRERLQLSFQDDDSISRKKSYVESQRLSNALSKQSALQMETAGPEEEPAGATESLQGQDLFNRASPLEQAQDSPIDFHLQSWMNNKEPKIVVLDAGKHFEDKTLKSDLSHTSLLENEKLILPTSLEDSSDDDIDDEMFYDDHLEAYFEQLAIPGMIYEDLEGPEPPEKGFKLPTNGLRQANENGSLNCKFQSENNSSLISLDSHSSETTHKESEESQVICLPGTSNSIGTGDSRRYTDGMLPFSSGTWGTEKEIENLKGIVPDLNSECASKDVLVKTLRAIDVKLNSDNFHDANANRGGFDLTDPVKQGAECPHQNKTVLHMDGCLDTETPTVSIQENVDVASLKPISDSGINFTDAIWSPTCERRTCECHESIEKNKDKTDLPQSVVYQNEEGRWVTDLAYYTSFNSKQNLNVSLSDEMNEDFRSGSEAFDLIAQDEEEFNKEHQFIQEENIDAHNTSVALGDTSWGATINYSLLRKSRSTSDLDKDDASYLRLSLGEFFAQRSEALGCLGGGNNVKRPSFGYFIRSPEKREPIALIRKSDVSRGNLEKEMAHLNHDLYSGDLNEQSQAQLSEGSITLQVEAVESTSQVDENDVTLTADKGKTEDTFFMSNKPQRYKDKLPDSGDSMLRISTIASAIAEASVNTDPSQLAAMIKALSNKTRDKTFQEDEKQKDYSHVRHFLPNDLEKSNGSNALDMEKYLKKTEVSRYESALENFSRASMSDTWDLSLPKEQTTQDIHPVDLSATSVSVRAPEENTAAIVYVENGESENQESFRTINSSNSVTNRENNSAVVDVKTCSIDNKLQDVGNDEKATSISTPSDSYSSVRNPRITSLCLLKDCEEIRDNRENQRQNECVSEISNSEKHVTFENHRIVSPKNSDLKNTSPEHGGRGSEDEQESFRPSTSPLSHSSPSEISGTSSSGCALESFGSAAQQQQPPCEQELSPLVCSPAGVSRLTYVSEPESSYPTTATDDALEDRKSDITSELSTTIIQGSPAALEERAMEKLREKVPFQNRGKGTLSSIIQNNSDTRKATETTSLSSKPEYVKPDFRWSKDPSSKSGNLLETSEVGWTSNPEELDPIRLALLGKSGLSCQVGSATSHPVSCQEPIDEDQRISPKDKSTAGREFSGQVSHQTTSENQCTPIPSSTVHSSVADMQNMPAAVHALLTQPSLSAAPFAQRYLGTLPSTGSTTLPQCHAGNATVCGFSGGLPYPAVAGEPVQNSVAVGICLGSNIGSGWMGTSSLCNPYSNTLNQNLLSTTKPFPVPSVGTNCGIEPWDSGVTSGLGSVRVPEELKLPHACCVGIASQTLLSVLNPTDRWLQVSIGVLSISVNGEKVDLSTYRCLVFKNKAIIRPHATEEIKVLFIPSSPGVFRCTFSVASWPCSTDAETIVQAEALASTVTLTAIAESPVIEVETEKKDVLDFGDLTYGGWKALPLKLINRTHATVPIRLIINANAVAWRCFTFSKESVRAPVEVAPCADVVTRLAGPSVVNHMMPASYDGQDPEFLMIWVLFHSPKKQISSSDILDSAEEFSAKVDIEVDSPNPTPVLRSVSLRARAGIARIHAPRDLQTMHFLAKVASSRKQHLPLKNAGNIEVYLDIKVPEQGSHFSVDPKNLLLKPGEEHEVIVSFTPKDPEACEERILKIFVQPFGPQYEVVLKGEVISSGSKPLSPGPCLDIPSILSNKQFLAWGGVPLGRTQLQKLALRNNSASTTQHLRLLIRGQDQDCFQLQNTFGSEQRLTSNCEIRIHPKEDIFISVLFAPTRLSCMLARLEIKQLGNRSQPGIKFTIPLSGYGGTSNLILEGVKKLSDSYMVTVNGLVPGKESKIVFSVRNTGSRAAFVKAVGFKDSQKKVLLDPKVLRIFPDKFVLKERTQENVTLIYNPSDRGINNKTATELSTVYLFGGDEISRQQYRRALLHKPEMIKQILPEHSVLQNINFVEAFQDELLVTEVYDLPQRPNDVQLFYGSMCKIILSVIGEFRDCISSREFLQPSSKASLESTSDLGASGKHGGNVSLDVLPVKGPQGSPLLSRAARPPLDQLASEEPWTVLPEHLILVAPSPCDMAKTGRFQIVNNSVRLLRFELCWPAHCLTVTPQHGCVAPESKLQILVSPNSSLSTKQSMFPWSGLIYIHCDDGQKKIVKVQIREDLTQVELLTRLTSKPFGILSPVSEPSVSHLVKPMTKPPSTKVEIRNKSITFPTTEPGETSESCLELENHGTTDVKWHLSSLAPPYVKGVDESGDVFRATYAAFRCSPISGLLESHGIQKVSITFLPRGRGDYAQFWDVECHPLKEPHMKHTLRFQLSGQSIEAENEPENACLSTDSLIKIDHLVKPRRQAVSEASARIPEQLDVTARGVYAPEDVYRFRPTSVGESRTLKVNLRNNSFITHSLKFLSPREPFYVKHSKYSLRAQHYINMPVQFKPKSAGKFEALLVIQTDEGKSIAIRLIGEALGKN

Experiments:
Cdh1 (human) (human) [1] = target: Cdh1 (human) (human) (UniProt Q9UM11); test: co-IP; antibody-coupled PrA Dynabeads (Supplementary Fig. 5d); human proteins; extracts incubated with the beads for 2 h at 4 °C
Cdh1 (human) (human) [2] = target: Cdh1 (human) (human) (UniProt Q9UM11); test: co-IP; immunoprecipitation of a GFP-tagged protein with GFP-Trap-A beads (Supplementary Fig. 5e); human proteins

- binding (Cdh1 (human) (human) [1]): no binding
- binding (Cdh1 (human) (human) [2]): no binding
Substance: Cep192 (from UniProt Q8TEP8 1-2537)
